In PubChem BioAssay AID1625 (Sanford-Burnham Center for Chemical Genomics, 2009) one finds cell count data, which are given here for 74 compounds.

The structures appear in SMILES notation. Several values for one entry are separate records, joined by “and”; a condition that tells them apart may be missing. Equal values may be shown once. The list shows a part of the results.

The experiment is described as follows: up-regulation of insulin promoter-GFP reporter – imaging, high-content screening, mouse beta cells (AID 1625).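 Note: total cells summed across four imaged fields per well.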 To be noted: MIN6 insulin promoter-GFP reporter, measured here: cytotoxicity, nuclei count, at 5 µM.
For `CP(=O)(OCCOc1ccccc1)OCCOc1ccccc1`, the cell count was found to be 1260 cells.

`Nc1cccc2ccc([As](=O)(O)O)cc12` showed a cell count of 1380 cells.

`CCN(N=Nc1nonc1N)c1nonc1N` had a cell count of 1440 cells.

Consider `Cc1nc2ccc3ccccc3c2o1.O=[N+]([O-])c1cc([N+](=O)[O-])c(O)c([N+](=O)[O-])c1`, for which the cell count was determined as 1330 cells.

In turn, `COc1ccc(OP(C)(=O)Nc2ccccc2Br)cc1` (centres undefined) showed a cell count of 1540 cells.

On to `COc1ccccc1OP(C)(=O)Nc1ccc(C)c(C)c1` (centres undefined), for which the cell count amounted to 1130 cells.

The compound `Cc1ccc(NP(=O)(Oc2ccccc2F)Oc2ccccc2F)nc1` returned a cell count of 978 cells.

With `Cc1cc(SC(NC(=O)c2ccc(F)cc2)C(Cl)(Cl)Cl)ncn1` (centres undefined), the cell count turned out to be 1480 cells.

On to `CCOP(=O)(Nc1ccccc1)OCC`, for which the cell count is 716 cells and 1360 cells.

`O=P(Nc1nc2ccc(Cl)cc2s1)(c1ccccc1)c1ccccc1` gave a cell count of 1120 cells.

As to `Cc1cc(C)cc(OP(C)(=O)Nc2cccc(C(F)(F)F)c2)c1` (centres undefined), the cell count turned out to be 1560 cells.

Consider `CC(=O)Nc1ccc([As](=O)(O)O)cc1`, for which the cell count is 1420 cells.

Regarding `O=C(O)c1ccccc1[As](=O)(O)O`, the cell count worked out at 1310 cells.

Compound `CCc1ccc(OP(C)(=O)O)cc1` returned a cell count of 1590 cells.

Take `COc1ccccc1OP(C)(=O)Nc1ccc(C)cc1C` (centres undefined): the cell count was determined as 1490 cells.

Regarding `CP(=O)(Nc1ccccn1)Oc1ccccc1` (centres undefined), the cell count was 1240 cells.

Consider `Cc1c2non([O-])c-2c(C)[n+](=O)[n+]1[O-]`, for which the cell count amounted to 1250 cells.

In turn, `Oc1ccccc1CNc1ccccn1` displayed a cell count of 932 cells.

Compound `Cc1c(NP(C)(=O)Oc2ccc(C(C)C)cc2)c(=O)n(-c2ccccc2)n1C` (centres undefined) gave a cell count of 1350 cells.

With `O=[N+]([O-])c1cc([N+](=O)[O-])c(Nc2ccccn2)c([N+](=O)[O-])c1`, the cell count is 1230 cells.

Consider `CN(C)CCOC(=O)C(O)(c1ccccc1)C1CCCC1` (centres undefined), for which the cell count amounted to 1030 cells.

As for `Clc1ccc(Cl)c(NC2=NCC(CBr)S2)c1` (centres undefined), the cell count was found to be 1310 cells.

As for `Cc1ccc(OP(=O)(Nc2nccs2)Oc2ccc(C)cc2)cc1`, the cell count turned out to be 1070 cells.

`COc1ccccc1OP(=O)(Nc1ccc(C)cn1)Oc1ccccc1OC` showed a cell count of 1680 cells.

Compound `COc1ccc(OP(C)(=O)Nc2ccccn2)cc1` (centres undefined) gave a cell count of 827 cells.

`Cc1ccc(N/C(=N/P(=O)(N2CCOCC2)N2CCOCC2)N2CCOCC2)cc1` had a cell count of 1640 cells.

As for `COc1ccccc1OP(C)(=O)Nc1ccc(Br)cc1` (centres undefined), the cell count worked out at 953 cells.

`NC(=O)c1cc([N+](=O)[O-])cc([N+](=O)[O-])c1N` came in with a cell count of 1170 cells.

As for `CC(=O)Nc1ccc(Oc2c([N+](=O)[O-])cc([N+](=O)[O-])cc2[N+](=O)[O-])cc1`, the cell count was 1270 cells.

`CC(=O)Nc1ccc([As](=O)(O)O)c(O)c1` had a cell count of 1460 cells.

Turning to `C[C@H]1OP(=O)(Oc2ccccc2)C[C@@H]2O[C@@H]21` (some centres undefined), the cell count worked out at 1030 cells.

On to `C[C@@H]1C=CCP(=O)(Oc2ccccc2)O1` (some centres undefined), for which the cell count came to 876 cells.

With `O=C(OCCN1CCN(CCOCc2ccccc2)CC1)C(O)(c1ccccc1)c1ccccc1`, the cell count is 1470 cells.

Turning to `O=C(OC1CN2CCC1CC2)c1ccc([N+](=O)[O-])cc1` (centres undefined), the cell count turned out to be 1350 cells.

In the case of `CC(C)c1ccc(OP(C)(=O)Nc2ccc(SC(F)(F)F)cc2)cc1` (centres undefined), the cell count came out at 1260 cells.

Regarding `CC(C)(C)C(=O)NC(Sc1ccccc1)C(Cl)(Cl)Cl` (centres undefined), the cell count was 1500 cells.

For the compound `CP(=O)(Nc1ccccc1F)Oc1ccccc1` (centres undefined), the cell count was 1230 cells.

The compound `CCOc1ccc(C2=NCC(CBr)S2)cc1` (centres undefined) had a cell count of 1450 cells.

`O=P1(Nc2nc3ccc(Cl)cc3s2)COc2ccccc2O1` (centres undefined) returned a cell count of 881 cells.

With `CCCCCOc1ccc(NP(C)(=O)Oc2ccc(Cl)cc2Cl)cc1` (centres undefined), the cell count came out at 1160 cells.

Turning to `CN(C)C(=O)Oc1noc2ccccc12`, the cell count came out at 987 cells.

In turn, `Cc1ccccc1OP(=O)(Nc1ccccn1)Oc1ccccc1C` yielded a cell count of 1040 cells.

`CP(=O)(Nc1ccccc1)Oc1ccc(F)cc1` (centres undefined): the cell count was determined as 1550 cells.

With `Cc1ccc(OP(=O)(Nc2ccccn2)Oc2ccc(C)cc2)cc1`, the cell count came out at 1240 cells.

Compound `CC(=O)NC(SC(=S)N(CC(C)C)CC(C)C)C(Cl)(Cl)Cl` (centres undefined) had a cell count of 1230 cells.

The compound `COC(=O)c1cc2c(s1)N=C(c1ccccc1)N(C)P2(=O)N1CCOCC1` (centres undefined) yielded a cell count of 1630 cells.

Regarding `COc1ccc(OP(C)(=O)Nc2ccc(SC(F)(F)F)cc2)cc1` (centres undefined), the cell count turned out to be 1180 cells.

As to `CCOC(=O)c1ccc(NP(C)(=O)Oc2ccc(F)cc2)cc1` (centres undefined), the cell count was determined as 922 cells.

For `CCOC(=O)NC(Sc1ccccc1)C(Cl)(Cl)Cl` (centres undefined), the cell count was determined as 1620 cells.

Take `Cc1ccc(NP(=O)(Oc2cccc(C)c2)Oc2cccc(C)c2)nc1`: the cell count is 1160 cells.

In turn, `c1ccc(-c2nn[nH]n2)c(-c2nn[nH]n2)c1` returned a cell count of 1430 cells.

In turn, `O=C(NC1CCS(=O)(=O)C1)NP(=S)(Oc1ccccc1)Oc1ccccc1` (centres undefined) yielded a cell count of 1180 cells.

As to `CCNC(=S)/N=C(\N)N[N+](=O)[O-]`, the cell count came out at 1480 cells.

`O=C(OC1CN2CCC1CC2)c1cccc(Cl)c1` (centres undefined) gave a cell count of 1090 cells.

Regarding `C(Cc1nn[nH]n1)Cc1nn[nH]n1`, the cell count was found to be 1160 cells.

Turning to `Nc1ccc([As](=O)(O)c2ccc([N+](=O)[O-])cc2)cc1`, the cell count amounted to 1300 cells.

With `O=[N+]([O-])c1cc([N+](=O)[O-])c(NCC2CCS(=O)(=O)C2)c([N+](=O)[O-])c1` (centres undefined), the cell count was found to be 1130 cells.

For the compound `Cc1cc(-c2cccc3ccccc23)c(C)cn1.O=[N+]([O-])c1cc([N+](=O)[O-])c(O)c([N+](=O)[O-])c1`, the cell count worked out at 1280 cells.

Compound `O=[As](O)(c1ccccc1)c1ccc(O)cc1` gave a cell count of 1090 cells.

For the compound `O=[N+]([O-])c1ncn(CCn2cnc([N+](=O)[O-])n2)n1`, the cell count was determined as 1130 cells.

On to `O=[N+]([O-])c1ccc(OP2(=O)COCCO2)cc1` (centres undefined), for which the cell count is 1090 cells.

As to `COc1ccc(NP(C)(=O)Oc2ccccc2OC)cc1` (centres undefined), the cell count is 1260 cells.

As for `C[C@H]1OP(=O)(Oc2ccccc2)[C@H](O)[C@H](O)[C@H]1N=[N+]=[N-]` (some centres undefined), the cell count worked out at 1170 cells.

`O=P(Nc1nc2ccccc2s1)(c1ccccc1)c1ccccc1` came in with a cell count of 1370 cells.

`CN(C)CCOC(=O)C(O)(c1ccccc1)C1CCCCC1` (centres undefined) registered a cell count of 1880 cells.

`O=P(Nc1ccccn1)(c1ccc(Br)cc1)c1ccc(Br)cc1` gave a cell count of 1430 cells.

Compound `COc1ccc(OP(C)(=O)Nc2cccc(Br)c2)cc1` (centres undefined) registered a cell count of 1500 cells.

For `Cc1ccccc1NP(C)(=O)Nc1ccccc1C`, the cell count worked out at 1090 cells.

In the case of `CP(=O)(Nc1ccc2c(c1)OCCO2)Oc1ccccc1` (centres undefined), the cell count was 1090 cells.

With `c1nnnn1CCn1cnnn1`, the cell count was found to be 901 cells.

With `CCOP(C)(=S)SCC(=O)NC(C)(CC)C(=O)O` (centres undefined), the cell count is 1870 cells.

The compound `O=P(Nc1nccs1)(c1ccccc1)c1ccccc1` gave a cell count of 1290 cells.

As to `CC(C)C(=O)NC(Sc1ccccc1)C(Cl)(Cl)Cl` (centres undefined), the cell count was 1540 cells.

In turn, `CP(=O)(Nc1ccc(SC(F)(F)F)cc1)Oc1ccc(F)cc1` (centres undefined) registered a cell count of 1080 cells.
